Measured values as given in the supplement of paper PMC12067093, “Discovery and optimisation of a covalent ligand for TRIM25 and its application to targeted protein ubiquitination” (Chemical Science, 2025).
The list shows a part of the results.

The chains behind the UniProt entries cited, without tags or fusion partners. Where a name states a change or a piece, a line headed by the entry shows the natural chain unless it says otherwise.
UniProt Q9NV56, whole entry, looked up: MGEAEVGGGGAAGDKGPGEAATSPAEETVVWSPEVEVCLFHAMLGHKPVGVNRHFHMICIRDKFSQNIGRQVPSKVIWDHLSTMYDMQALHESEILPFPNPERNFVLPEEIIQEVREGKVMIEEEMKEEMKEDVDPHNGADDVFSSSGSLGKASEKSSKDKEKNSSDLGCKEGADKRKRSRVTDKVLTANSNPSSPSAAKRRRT
UniProt Q8NB16: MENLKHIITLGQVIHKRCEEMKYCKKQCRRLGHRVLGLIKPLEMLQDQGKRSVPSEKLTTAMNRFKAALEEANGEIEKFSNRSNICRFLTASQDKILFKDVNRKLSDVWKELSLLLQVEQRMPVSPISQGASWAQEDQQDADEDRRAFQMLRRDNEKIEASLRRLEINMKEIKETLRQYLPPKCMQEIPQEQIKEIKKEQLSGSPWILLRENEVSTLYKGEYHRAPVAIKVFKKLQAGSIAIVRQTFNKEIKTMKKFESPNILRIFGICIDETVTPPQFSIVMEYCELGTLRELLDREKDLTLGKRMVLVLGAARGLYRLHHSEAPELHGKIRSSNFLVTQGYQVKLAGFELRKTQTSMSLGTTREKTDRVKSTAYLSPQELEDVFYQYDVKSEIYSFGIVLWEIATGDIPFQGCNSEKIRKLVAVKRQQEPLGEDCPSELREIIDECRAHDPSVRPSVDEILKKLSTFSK
UniProt Q00013: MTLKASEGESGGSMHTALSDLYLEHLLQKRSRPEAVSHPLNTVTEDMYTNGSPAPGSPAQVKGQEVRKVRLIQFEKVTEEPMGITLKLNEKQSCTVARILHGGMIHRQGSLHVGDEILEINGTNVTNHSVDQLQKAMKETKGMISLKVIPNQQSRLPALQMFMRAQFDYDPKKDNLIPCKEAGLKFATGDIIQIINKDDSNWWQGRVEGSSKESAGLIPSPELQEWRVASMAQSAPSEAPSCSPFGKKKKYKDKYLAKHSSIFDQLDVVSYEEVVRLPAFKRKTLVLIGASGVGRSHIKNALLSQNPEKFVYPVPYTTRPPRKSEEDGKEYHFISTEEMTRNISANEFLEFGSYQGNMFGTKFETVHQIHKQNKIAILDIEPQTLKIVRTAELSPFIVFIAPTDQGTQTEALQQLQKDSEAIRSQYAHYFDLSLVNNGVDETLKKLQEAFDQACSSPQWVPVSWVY
UniProt O14880: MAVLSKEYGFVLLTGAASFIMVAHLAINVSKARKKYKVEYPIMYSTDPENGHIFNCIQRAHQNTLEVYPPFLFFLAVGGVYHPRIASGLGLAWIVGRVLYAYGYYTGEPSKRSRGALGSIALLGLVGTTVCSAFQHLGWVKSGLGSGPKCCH
UniProt Q9Y6X9: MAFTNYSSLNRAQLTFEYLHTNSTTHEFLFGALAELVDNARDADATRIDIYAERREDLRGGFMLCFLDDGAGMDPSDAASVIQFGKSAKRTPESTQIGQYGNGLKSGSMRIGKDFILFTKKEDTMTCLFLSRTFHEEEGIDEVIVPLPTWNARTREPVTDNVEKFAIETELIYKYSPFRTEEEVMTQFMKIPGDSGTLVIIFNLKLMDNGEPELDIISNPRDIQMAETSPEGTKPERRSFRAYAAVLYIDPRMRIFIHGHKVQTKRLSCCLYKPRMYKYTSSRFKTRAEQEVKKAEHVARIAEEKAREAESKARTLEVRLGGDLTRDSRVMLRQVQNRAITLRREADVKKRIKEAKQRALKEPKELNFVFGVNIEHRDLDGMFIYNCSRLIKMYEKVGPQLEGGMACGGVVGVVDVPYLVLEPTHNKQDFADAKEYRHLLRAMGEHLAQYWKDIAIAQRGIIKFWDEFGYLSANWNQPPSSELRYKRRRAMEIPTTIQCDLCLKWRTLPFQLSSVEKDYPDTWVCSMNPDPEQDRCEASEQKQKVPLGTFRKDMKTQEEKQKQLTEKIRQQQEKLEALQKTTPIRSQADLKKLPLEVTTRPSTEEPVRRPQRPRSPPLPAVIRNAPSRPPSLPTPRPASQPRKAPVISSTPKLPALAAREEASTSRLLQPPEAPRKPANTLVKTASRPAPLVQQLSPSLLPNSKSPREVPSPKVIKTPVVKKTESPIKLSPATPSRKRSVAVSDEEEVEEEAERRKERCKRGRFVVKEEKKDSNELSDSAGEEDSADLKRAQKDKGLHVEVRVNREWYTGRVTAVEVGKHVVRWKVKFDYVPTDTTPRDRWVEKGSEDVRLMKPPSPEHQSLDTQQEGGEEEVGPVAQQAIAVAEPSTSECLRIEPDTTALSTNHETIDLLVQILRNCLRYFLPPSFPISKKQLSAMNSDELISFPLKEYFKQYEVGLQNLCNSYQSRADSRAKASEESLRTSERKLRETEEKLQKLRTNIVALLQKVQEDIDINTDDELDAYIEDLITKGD
UniProt A9UHW6: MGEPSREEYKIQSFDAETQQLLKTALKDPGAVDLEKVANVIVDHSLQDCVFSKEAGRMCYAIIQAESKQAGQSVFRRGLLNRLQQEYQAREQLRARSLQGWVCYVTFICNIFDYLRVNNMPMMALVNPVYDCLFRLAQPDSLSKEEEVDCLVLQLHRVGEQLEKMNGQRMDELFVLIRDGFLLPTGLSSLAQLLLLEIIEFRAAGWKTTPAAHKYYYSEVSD
UniProt Q86YT6, whole entry, looked up: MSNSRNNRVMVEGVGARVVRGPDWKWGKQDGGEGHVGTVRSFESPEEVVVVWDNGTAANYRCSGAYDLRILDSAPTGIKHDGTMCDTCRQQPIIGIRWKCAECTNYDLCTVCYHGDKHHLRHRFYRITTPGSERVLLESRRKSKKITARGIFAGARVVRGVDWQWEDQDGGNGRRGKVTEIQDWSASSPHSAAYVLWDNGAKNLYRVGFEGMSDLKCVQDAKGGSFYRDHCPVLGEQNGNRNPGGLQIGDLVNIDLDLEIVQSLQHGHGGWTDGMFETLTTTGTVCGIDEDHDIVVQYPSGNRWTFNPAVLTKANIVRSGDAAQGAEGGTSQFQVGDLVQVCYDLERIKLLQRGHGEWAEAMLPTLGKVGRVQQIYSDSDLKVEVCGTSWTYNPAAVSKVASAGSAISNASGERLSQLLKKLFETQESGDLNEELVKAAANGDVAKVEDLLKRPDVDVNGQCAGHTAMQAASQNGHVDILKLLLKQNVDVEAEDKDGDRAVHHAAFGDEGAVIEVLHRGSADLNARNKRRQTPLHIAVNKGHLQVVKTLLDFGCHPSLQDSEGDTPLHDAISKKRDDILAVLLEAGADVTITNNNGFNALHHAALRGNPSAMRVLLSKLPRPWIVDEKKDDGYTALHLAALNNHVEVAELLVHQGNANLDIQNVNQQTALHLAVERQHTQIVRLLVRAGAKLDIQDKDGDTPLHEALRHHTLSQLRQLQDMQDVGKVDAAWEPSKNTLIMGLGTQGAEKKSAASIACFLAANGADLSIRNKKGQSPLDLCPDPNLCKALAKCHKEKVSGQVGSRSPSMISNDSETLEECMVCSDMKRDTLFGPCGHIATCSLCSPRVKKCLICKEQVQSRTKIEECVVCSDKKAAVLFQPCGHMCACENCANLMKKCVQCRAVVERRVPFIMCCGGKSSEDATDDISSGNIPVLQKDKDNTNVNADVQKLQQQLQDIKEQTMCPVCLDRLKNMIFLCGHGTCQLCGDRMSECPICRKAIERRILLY
UniProt Q8IVH4: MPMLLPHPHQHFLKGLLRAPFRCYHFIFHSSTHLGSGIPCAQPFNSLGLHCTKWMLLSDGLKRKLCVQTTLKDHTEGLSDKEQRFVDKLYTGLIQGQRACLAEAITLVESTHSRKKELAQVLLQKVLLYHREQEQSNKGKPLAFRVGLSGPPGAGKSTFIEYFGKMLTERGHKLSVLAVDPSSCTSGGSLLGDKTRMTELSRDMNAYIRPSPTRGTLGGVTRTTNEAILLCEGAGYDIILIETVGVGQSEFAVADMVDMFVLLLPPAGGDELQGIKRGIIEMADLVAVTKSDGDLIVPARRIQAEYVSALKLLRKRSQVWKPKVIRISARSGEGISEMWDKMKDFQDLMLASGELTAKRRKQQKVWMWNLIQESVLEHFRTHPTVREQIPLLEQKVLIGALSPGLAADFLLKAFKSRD
UniProt Q9UBG0: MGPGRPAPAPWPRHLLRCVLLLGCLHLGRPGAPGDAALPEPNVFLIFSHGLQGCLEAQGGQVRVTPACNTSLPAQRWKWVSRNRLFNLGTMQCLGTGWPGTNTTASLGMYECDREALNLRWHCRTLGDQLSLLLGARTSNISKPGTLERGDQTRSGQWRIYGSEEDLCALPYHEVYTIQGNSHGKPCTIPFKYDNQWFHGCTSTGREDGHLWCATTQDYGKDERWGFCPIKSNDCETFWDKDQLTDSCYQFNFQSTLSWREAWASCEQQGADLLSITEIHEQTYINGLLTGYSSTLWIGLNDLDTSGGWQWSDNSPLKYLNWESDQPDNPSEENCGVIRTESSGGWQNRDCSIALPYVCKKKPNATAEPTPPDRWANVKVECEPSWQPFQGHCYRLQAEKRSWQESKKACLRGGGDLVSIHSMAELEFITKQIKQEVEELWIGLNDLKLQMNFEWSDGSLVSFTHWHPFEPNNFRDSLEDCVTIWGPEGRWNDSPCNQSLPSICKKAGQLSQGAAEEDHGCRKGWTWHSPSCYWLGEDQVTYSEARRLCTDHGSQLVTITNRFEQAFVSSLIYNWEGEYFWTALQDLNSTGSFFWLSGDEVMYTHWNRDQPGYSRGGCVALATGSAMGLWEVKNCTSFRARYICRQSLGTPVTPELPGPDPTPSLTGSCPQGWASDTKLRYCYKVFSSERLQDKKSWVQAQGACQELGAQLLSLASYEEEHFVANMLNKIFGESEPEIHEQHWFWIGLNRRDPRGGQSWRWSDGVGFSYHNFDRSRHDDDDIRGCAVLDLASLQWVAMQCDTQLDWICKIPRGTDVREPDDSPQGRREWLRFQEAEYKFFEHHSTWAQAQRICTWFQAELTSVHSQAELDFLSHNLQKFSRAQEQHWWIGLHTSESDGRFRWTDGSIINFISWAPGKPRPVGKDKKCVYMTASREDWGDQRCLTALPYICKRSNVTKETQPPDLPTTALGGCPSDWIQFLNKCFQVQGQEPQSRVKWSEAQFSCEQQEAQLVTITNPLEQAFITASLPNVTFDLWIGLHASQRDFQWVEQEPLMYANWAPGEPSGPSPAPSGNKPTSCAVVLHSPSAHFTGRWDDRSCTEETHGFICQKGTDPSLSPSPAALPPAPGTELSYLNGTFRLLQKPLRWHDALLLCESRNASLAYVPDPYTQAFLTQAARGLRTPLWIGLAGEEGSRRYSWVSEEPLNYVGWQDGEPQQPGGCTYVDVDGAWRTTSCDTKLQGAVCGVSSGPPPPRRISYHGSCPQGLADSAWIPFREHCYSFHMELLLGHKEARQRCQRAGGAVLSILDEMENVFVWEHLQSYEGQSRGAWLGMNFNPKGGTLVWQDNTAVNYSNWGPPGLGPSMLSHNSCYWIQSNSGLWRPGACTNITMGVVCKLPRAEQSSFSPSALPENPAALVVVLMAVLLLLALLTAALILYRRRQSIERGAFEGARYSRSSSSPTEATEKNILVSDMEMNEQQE
UniProt Q9HCE1: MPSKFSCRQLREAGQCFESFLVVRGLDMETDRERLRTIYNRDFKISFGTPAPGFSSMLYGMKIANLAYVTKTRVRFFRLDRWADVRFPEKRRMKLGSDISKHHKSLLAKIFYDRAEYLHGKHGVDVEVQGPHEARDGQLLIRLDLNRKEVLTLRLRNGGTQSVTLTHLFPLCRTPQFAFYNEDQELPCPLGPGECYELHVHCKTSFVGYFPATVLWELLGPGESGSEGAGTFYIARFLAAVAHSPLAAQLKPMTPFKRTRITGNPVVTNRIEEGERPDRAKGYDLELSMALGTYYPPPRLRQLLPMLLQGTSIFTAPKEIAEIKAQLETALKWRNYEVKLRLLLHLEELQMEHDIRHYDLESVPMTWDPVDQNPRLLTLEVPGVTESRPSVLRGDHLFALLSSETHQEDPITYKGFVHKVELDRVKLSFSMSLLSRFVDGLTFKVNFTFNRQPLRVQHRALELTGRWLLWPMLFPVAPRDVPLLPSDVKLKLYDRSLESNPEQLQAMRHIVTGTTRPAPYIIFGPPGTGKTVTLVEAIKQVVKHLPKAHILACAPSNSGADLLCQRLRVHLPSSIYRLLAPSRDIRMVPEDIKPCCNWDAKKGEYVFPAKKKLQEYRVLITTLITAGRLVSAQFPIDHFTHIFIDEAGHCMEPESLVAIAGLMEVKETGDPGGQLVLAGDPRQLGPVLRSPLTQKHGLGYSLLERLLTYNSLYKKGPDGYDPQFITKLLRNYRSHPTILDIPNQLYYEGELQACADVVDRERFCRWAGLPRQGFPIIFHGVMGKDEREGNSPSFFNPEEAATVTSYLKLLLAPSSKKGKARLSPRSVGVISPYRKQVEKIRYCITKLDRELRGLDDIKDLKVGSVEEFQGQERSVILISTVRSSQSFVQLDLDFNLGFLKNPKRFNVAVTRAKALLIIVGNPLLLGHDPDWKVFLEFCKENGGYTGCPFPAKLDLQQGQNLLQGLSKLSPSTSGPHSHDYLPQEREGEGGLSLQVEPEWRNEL

compound: CC1Cc2ccccc2N1C(=O)C1CCCN(C1)C(=O)CCl (mixture of isomers) [TRIM25 ligand 11 (diastereomer mixture)]; assay: probe-labelled cysteine peptide fold change vs DMSO (competition) (log2 fold change); higher = less target engagement (more negative = stronger competition); settings: 10 µM; THP-1; incubation time: 4 h
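Also: competitive chemoproteomic profiling in live THP-1 cells with an iodoacetamide desthiobiotin (IA-DTB) probe, comparing probe-labelled peptide intensities in compound-treated cells against DMSO-treated controls.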

| Target | probe-labelled cysteine peptide fold change |
| --- | --- |
| MRGBP_Q9NV56_59_HFHMICIR (UniProt Q9NV56) | -0.144 |
| MLKL_Q8NB16_437_RQQEPLGEDCPSELR (UniProt Q8NB16) | 0.111 |
| MPP1_Q00013_179_DNLIPCK (UniProt Q00013) | 0.035 |
| MMADHC_Q9H3L0_148_VECAIQTCPELLRK (UniProt Q9H3L0) | -0.102 |
| MGST3_O14880_56_YKVEYPIMYSTDPENGHIFNCIQR (UniProt O14880) | 0.0746 |
| MORC2_Q9Y6X9_127_KEDTMTCLFLSR (UniProt Q9Y6X9) | 0.17 |
| MICAL1_Q8TDZ2_87+95_CLVVGAGPCGLR (UniProt Q8TDZ2) | -0.147 |
| MICAL1_Q8TDZ2_711_LCVNGHFFHR (UniProt Q8TDZ2) | -0.0577 |
| MINDY1_Q8N5J2_94_ACSMPQELPQSPR (UniProt Q8N5J2) | -0.162 |
| MGMT_P16455_145_GNPVPILIPCHR (UniProt P16455) | -0.499 |
| MRPL2_Q5T653_213_AAGTCGVLLR (UniProt Q5T653) | -0.0351 |
| MORC2_Q9Y6X9_387_DLDGMFIYNCSR (UniProt Q9Y6X9) | 0.019 |
| MIF4GD_A9UHW6_150_LAQPDSLSKEEEVDCLVLQLHR (UniProt A9UHW6) | -0.152 |
| MRPL3_P09001_127_HVVTLLQVQDCHVLK (UniProt P09001) | 0.0523 |
| MKI67_P46013_643_SQHDILQMICSK (UniProt P46013) | 0.104 |
| MMS19_Q96T76_331_VEAEGLAALHSLTACLSR (UniProt Q96T76) | 0.0372 |
| MIS18BP1_Q6P0N0_918_SPEECQR (UniProt Q6P0N0) | -0.0309 |
| MIB1_Q86YT6_62_CSGAYDLR (UniProt Q86YT6) | -0.0439 |
| MGA_Q8IWI9_1238_EEDKDPVYLYFESMMTCAR (UniProt Q8IWI9) | 0.0928 |

| Target | probe-labelled cysteine peptide fold change |
| --- | --- |
| MRPL28_Q13084_154_EDLCSK (UniProt Q13084) | 0.0603 |
| MMAA_Q8IVH4_184_LSVLAVDPSSCTSGGSLLGDK (UniProt Q8IVH4) | 0.477 |
| MNDA_P41218_61_KFQGVACLDK (UniProt P41218) | 0.0354 |
| MKRN1_Q9UHC7_69_YFMHGVCK (UniProt Q9UHC7) | -0.00165 |
| MRC2_Q9UBG0_351_DCSIALPYVCK (UniProt Q9UBG0) | 0.0538 |
| MPP1_Q00013_242_VASMAQSAPSEAPSCSPFGKK (UniProt Q00013) | -0.234 |
| MKI67_P46013_2706_IPCESPPLEVVDTTASTK (UniProt P46013) | -0.107 |
| MICAL1_Q8TDZ2_87_CLVVGAGPCGLR (UniProt Q8TDZ2) | 0.221 |
| MLYCD_O95822_206_VTWHSPCEVLQK (UniProt O95822) | 0.00519 |
| MORC2_Q9Y6X9_502_AMEIPTTIQCDLCLK (UniProt Q9Y6X9) | 0.203 |
| MNAT1_P51948_6_MDDQGCPR (UniProt P51948) | -0.0866 |
| MORC3_Q14149_349_ANNMGVGVVGIIECNFLKPTHNK (UniProt Q14149) | -0.167 |
| MPST_P25325_7_ASPQLCR (UniProt P25325) | -0.185 |
| MRPL37_Q9BZE1_203_RICVQNSTFSATWNR (UniProt Q9BZE1) | 0.0617 |
| MRPL19_P49406_248_GIRFDLCLTEQQMK (UniProt P49406) | -0.116 |
| MMS19_Q96T76_977_IAALQCMHALTR (UniProt Q96T76) | 0.108 |
| MOCS3_O95396_193_YLVNDACVLAGRPLVSASALR (UniProt O95396) | -0.0913 |
| MOV10_Q9HCE1_172_NGGTQSVTLTHLFPLCR (UniProt Q9HCE1) | 0.234 |

same assay, conditions: 50 µM; THP-1; incubation time: 4 h

| Target | probe-labelled cysteine peptide fold change |
| --- | --- |
| MRGBP_Q9NV56_59_HFHMICIR (UniProt Q9NV56) | -0.0698 |
| MLKL_Q8NB16_437_RQQEPLGEDCPSELR (UniProt Q8NB16) | -0.0546 |
| MPP1_Q00013_179_DNLIPCK (UniProt Q00013) | 0.0583 |
| MMADHC_Q9H3L0_148_VECAIQTCPELLRK (UniProt Q9H3L0) | -0.141 |
| MGST3_O14880_56_YKVEYPIMYSTDPENGHIFNCIQR (UniProt O14880) | -0.113 |
| MORC2_Q9Y6X9_127_KEDTMTCLFLSR (UniProt Q9Y6X9) | 0.232 |
| MICAL1_Q8TDZ2_87+95_CLVVGAGPCGLR (UniProt Q8TDZ2) | 0.1 |
| MICAL1_Q8TDZ2_711_LCVNGHFFHR (UniProt Q8TDZ2) | 0.00322 |
| MINDY1_Q8N5J2_94_ACSMPQELPQSPR (UniProt Q8N5J2) | -0.508 |
| MGMT_P16455_145_GNPVPILIPCHR (UniProt P16455) | -1.05 |
| MRPL2_Q5T653_213_AAGTCGVLLR (UniProt Q5T653) | -0.00691 |
| MORC2_Q9Y6X9_387_DLDGMFIYNCSR (UniProt Q9Y6X9) | 0.069 |
| MIF4GD_A9UHW6_150_LAQPDSLSKEEEVDCLVLQLHR (UniProt A9UHW6) | 0.0168 |
| MRPL3_P09001_127_HVVTLLQVQDCHVLK (UniProt P09001) | 0.123 |
| MKI67_P46013_643_SQHDILQMICSK (UniProt P46013) | -0.404 |
| MMS19_Q96T76_331_VEAEGLAALHSLTACLSR (UniProt Q96T76) | 0.0651 |
| MIS18BP1_Q6P0N0_918_SPEECQR (UniProt Q6P0N0) | 0.181 |
| MIB1_Q86YT6_62_CSGAYDLR (UniProt Q86YT6) | 0.0552 |
| MGA_Q8IWI9_1238_EEDKDPVYLYFESMMTCAR (UniProt Q8IWI9) | 0.0487 |

| Target | probe-labelled cysteine peptide fold change |
| --- | --- |
| MRPL28_Q13084_154_EDLCSK (UniProt Q13084) | 0.116 |
| MMAA_Q8IVH4_184_LSVLAVDPSSCTSGGSLLGDK (UniProt Q8IVH4) | -0.0496 |
| MNDA_P41218_61_KFQGVACLDK (UniProt P41218) | -0.0884 |
| MKRN1_Q9UHC7_69_YFMHGVCK (UniProt Q9UHC7) | 0.0178 |
| MRC2_Q9UBG0_351_DCSIALPYVCK (UniProt Q9UBG0) | 0.164 |
| MPP1_Q00013_242_VASMAQSAPSEAPSCSPFGKK (UniProt Q00013) | -0.385 |
| MKI67_P46013_2706_IPCESPPLEVVDTTASTK (UniProt P46013) | -0.0987 |
| MICAL1_Q8TDZ2_87_CLVVGAGPCGLR (UniProt Q8TDZ2) | 0.325 |
| MLYCD_O95822_206_VTWHSPCEVLQK (UniProt O95822) | -0.0314 |
| MORC2_Q9Y6X9_502_AMEIPTTIQCDLCLK (UniProt Q9Y6X9) | 0.0321 |
| MNAT1_P51948_6_MDDQGCPR (UniProt P51948) | 0.476 |
| MORC3_Q14149_349_ANNMGVGVVGIIECNFLKPTHNK (UniProt Q14149) | -0.429 |
| MPST_P25325_7_ASPQLCR (UniProt P25325) | 0.0739 |
| MRPL37_Q9BZE1_203_RICVQNSTFSATWNR (UniProt Q9BZE1) | -0.119 |
| MRPL19_P49406_248_GIRFDLCLTEQQMK (UniProt P49406) | -0.11 |
| MMS19_Q96T76_977_IAALQCMHALTR (UniProt Q96T76) | 0.243 |
| MOCS3_O95396_193_YLVNDACVLAGRPLVSASALR (UniProt O95396) | -0.0185 |
| MOV10_Q9HCE1_172_NGGTQSVTLTHLFPLCR (UniProt Q9HCE1) | 0.148 |
